Construct, isoform or probe ends are uncertain for at least one entry. Tags and fusion partners may be left off the protein sequences shown.
Biological target: T1, Ioc4 PWWP domain (Saccharomyces cerevisiae) (UniProt Q04213)
T1 sequence (looked up): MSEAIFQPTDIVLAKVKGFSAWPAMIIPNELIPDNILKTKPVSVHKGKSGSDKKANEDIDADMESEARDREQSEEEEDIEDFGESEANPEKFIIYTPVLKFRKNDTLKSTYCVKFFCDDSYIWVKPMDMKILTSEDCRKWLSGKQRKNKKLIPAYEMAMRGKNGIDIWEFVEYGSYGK
Experiment: EMSA
Conditions: 15 fmol NCP (30 fmol unmodified NCP) per reaction, 5% native PAGE (37.5:1) in 0.4x TBE, 2% glycerol, binding buffer, pH and temperature not given (as in cited work), recombinant protein, residues 1-178, protein details: N-terminal 6xHis

In the case of “GGCAAGGTCGCTGTTCAATACATGCACAGG [ssDNA 30 nt]”, the Kd (label: Cy5, single-stranded DNA) is reported as 1650 nM.

Sequence “GGCAAGGUCGCUGUUCAAUACAUGCACAGG [ssRNA 30 nt]” has a Kd (label: Cy5) of 640 nM.

From paper PMC8934638, “H3K36 methylation and DNA-binding both promote Ioc4 recruitment and Isw1b remodeler function”
